# Some of the results follow.
# Test: mutant yeast GCN4 reporter luminescence inhibitors – S. cerevisiae, eIF2B-epsilon R284H, Beta-Glo luminescence, primary screen (AID 688)
# Conditions: GCN4-lacZ luminescence, measured here: mutant yeast growth, toxicity, concentration not given here
row,SMILES,growth inhibition [%]
1,N#CC1(Nc2ccccc2)CCN(CCc2ccccc2)CC1,-14.8
2,N/C(=N\O)c1c(N)no[n+]1[O-],-7.41
3,c1ccc(CN2CCC(Nc3ccccc3)CC2)cc1,6.06
4,CCC(CO)(C(=O)OC1CN2CCC1CC2)c1ccccc1 (centres undefined),15.2

# Reference: PubChem BioAssay AID688 (PCMD, 2007)
